Laboratory results reported in PubChem BioAssay AID493014 (National Center for Advancing Translational Sciences (NCATS), 2011).
Some of the results follow. Shown are side measurements of this screen, not its main read-out; they come without a call. Most of these compounds were active or inconclusive in the main read-out, so they are no random draw. The note in brackets gives the kind of curve behind each potency; many fits are weak.

Experiment: qHTS Assay to Find Inhibitors of Chronic Active B-Cell Receptor Signaling
Conditions: ABC-DLBCL IkBa-CBG/CBR reporter, luminescence ratio (green luciferase fused to IkBa over red control in TMD8 lymphoma cells), 4 h
Summary of the method: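 TMD8 human ABC-DLBCL cells with doxycycline-inducible IκBα–green luciferase fusion and unfused red luciferase, in 0.5% FBS medium; compounds up to 46 uM, 4 h at 37C. Green/red luminescence ratio, filter-overlap corrected, fitted to concentration-response curves.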

[1] = measured here: CBR red luminescence, cell number
[2] = measured here: IkBa-CBG green luminescence

Structure (SMILES) | AC50 [1] | AC50 [2]
c1ccc(-n2ncc3c(N4CCCCC4)ncnc32)cc1 | 15.8 µM [falling, single point] | 
CCc1ccc2c(COC(=O)c3n[nH]c4ccccc34)cc(=O)oc2c1 | 20 µM [falling, single point] | 
COc1cccc(-c2nn(C)c3sc(C(=O)Nc4ccc5c(c4)OCCO5)cc23)c1 | 1.84 µM [falling, full curve, poor fit] | 
COC(=O)c1cc(NC(=O)Cc2ccc(OC)cc2)cc(C(=O)OC)c1 | 16.4 µM [rising, single point] | 
O=C1N(c2ccccc2)c2ccccc2C1(Cc1ccncc1)Cc1ccncc1 | 15.8 µM [falling, single point] | 
COCCn1ccc2c(OCC(=O)Nc3ccccc3F)cccc2c1=O | 1.41 µM [falling, full curve] | 
CCOc1ccccc1NC(=O)CCNS(=O)(=O)c1ccc(NC(C)=O)cc1 | 35.5 µM [rising, single point] | 
COC(=O)C(NC(=O)CNS(=O)(=O)c1ccc(Br)cc1)c1ccccc1 (stereo unspecified) | 11.2 µM [falling, partial curve, poor fit] | 
O=C(N/C=C/c1ccccc1)c1ccccc1 | 7.31 µM [falling, partial curve] | 
CCCCn1c2c(c(=O)n(C)c1=O)C(CC(=O)OCC(=O)Nc1cccc(C(F)(F)F)c1)C(=O)N2 (stereo unspecified) | 6.31 µM [falling, full curve, poor fit] | 
CCOc1ccccc1NC(=O)C1CCCCN1S(=O)(=O)c1ccc(F)cc1 (stereo unspecified) | 6.51 µM [rising, partial curve, poor fit] | 
Cc1cccc(-n2c(SCC(=O)NCc3ccc4c(c3)OCO4)nc3ccccc3c2=O)c1 | 1.84 µM [rising, partial curve, poor fit] | 
Cc1ccc(NC(=O)Cn2c(=O)oc3ccccc32)cc1C | 4.47 µM [falling, full curve, poor fit] | 
CCN(CC)S(=O)(=O)c1ccc2c(c1)nc(SC(C)C(N)=O)n2-c1ccc(OC)cc1 (stereo unspecified) | 7.31 µM [rising, partial curve, poor fit] | 
CNCCCCOc1ccc(C(C)(C)C)cc1Cl | 22.4 µM [falling, single point] | 
O=C(Nc1nc(-c2ccc(F)cc2)cs1)c1cccc(N2C(=O)CCC2=O)c1 | 10 µM [falling, partial curve] | 
CCc1ccccc1NC(=O)c1cc(-c2ccc(F)cc2)on1 | 1 µM [falling, full curve] | 
Cc1cc(C)n(-c2ccc(C(=O)Nc3cccnc3)cc2)n1 | 14.1 µM [falling, partial curve, poor fit] | 
O=C(N/N=C/c1ccc[nH]1)c1cc(-c2ccc(Cl)cc2)nc2ccccc12 | 12.6 µM [rising, partial curve, poor fit] | 
COc1ccccc1NC(=O)N1CCC(CN2CCc3ccccc3C2)CC1 | 5.62 µM [rising, partial curve] | 
CC(OC(=O)c1ccccc1N1C(=O)C2C3CCC(C3)C2C1=O)C(=O)c1ccccc1 (stereo unspecified) | 10.3 µM [rising, partial curve] | 

Of the compounds above, 4 contain an aryl methoxy group.
Structure (SMILES) | AC50 [1] | AC50 [2]
COc1cccc(-c2nn(C)c3sc(C(=O)Nc4ccc5c(c4)OCCO5)cc23)c1 | 1.84 µM [falling, full curve, poor fit] | 
COC(=O)c1cc(NC(=O)Cc2ccc(OC)cc2)cc(C(=O)OC)c1 | 16.4 µM [rising, single point] | 
CCN(CC)S(=O)(=O)c1ccc2c(c1)nc(SC(C)C(N)=O)n2-c1ccc(OC)cc1 (stereo unspecified) | 7.31 µM [rising, partial curve, poor fit] | 
COc1ccccc1NC(=O)N1CCC(CN2CCc3ccccc3C2)CC1 | 5.62 µM [rising, partial curve] | 

Carrying on:

Structure (SMILES) | AC50 [1] | AC50 [2]
COc1ccc(-c2nc(C#N)c(N3CCC(C)CC3)o2)cc1 | 2.24 µM [rising, partial curve, poor fit] | 
COC(=O)c1[nH]c2ccc(C)cc2c1NC(=O)CCN1CCN(C2CCCCC2)CC1 | 2.91 µM [rising, partial curve, poor fit] | 
CC1(C)C=C(c2ccc(C=O)s2)CC(C)(C)N1C=O | 18.4 µM [rising, partial curve, poor fit] | 
COc1ccccc1/C=C/C(C)=O | 29.1 µM [falling, single point] | 
CCN(C(=O)COC(=O)c1cc(-c2cccs2)nc2ccccc12)C1CCS(=O)(=O)C1 (stereo unspecified) | 35.5 µM [falling, single point] | 
Cc1cccnc1NC(=S)NC(=O)c1cncc(Br)c1 | 0.794 µM [rising, full curve, poor fit] | 
COc1ccc(/C=N\NC(=O)c2ccccc2Br)cc1COc1ccc(F)cc1 | 1.58 µM [falling, full curve, poor fit] | 
COc1cc(CCN2C(=O)c3cccc4cccc(c34)C2=O)c(S(=O)(=O)NCCCO)cc1OC | 11.2 µM [rising, partial curve, poor fit] | 
CC(C)c1ccc(C2CC(=O)c3cnc(N4CCc5ccccc5C4)nc3C2)cc1 (stereo unspecified) | 10 µM [falling, partial curve, poor fit] | 
O=C(/C=C/c1ccc(Cl)cc1Cl)N1CCc2ccccc21 | 29.1 µM [rising, single point] | 
Cc1cc(Cl)cc2c(N=Nc3ccccc3C(=O)O)c(O)[nH]c12 | 2 µM [falling, full curve] | 
O=C(C[n+]1cn(C(F)F)c2ccccc21)c1ccc(Br)cc1 | 20 µM [falling, single point] | 
COc1ccc(CCN(Cc2cccs2)S(=O)(=O)c2ccc(S(=O)(=O)N3CCC(C)CC3)cc2)cc1OC | 1.46 µM [rising, partial curve, poor fit] | 
Cc1cc(C(=O)N/N=C/c2cccs2)no1 | 32.6 µM [falling, single point] | 
CCOC(=O)c1sc(NC(=S)NC(=O)c2cccc(OC)c2)nc1C | 0.631 µM [falling, full curve] | 
CCC(C)(C(=O)NC1CCCC1)N(C(=O)CNC(C)=O)c1ccc(C)cc1 (stereo unspecified) | 29.1 µM [rising, single point] | 
CC(C)(C)c1ccc(C(=O)Nc2ccc(C(=O)N3CCOCC3)cc2)cc1 | 5.62 µM [rising, partial curve, poor fit] | 
O=C(N/N=C/c1ccccc1[N+](=O)[O-])c1ccc2nc[nH]c2c1 | 14.1 µM [falling, partial curve, poor fit] | 
COc1ccc(/C=N/NC(=O)c2cccnc2)cc1CSc1nc2ccccc2s1 | 23.1 µM [falling, single point] | 3.66 µM [falling, partial curve, poor fit]
Cc1ccc(N(C(C)C(=O)N2CCCC2)S(C)(=O)=O)cc1 (stereo unspecified) | 0.112 µM [rising, full curve, poor fit] | 
O=C(NCC1COc2ccccc2O1)c1cc2ccccc2o1 (stereo unspecified) | 1.3 µM [rising, full curve, poor fit] | 

Structure (SMILES) | AC50 [1] | AC50 [2]
CS(=O)(=O)N1CCC(C(=O)Nc2ccccc2)CC1 | 5.8 µM [rising, full curve] | 
COCC(=O)N1CCN(c2cccc(C(F)(F)F)c2)CC1 | 0.1 µM [rising, full curve, poor fit] | 
C=CCn1c(N/N=C/c2ccc(O)cc2)nc2ccccc2c1=O |  | 0.0794 µM [rising, full curve, poor fit]
O=Cc1cn(CCOc2ccccc2F)c2ccccc12 | 3.16 µM [rising, partial curve, poor fit] | 
CCOCCCNC(=O)Cn1cc2c(n1)CCCCC2 | 2.06 µM [rising, partial curve, poor fit] | 
O=c1cc(-c2ccc(O)c(O)c2)oc2cc(O)c([C@@H]3O[C@H](CO)[C@@H](O)[C@H](O)[C@H]3O)c(O)c12 | 16.4 µM [rising, single point] | 
O=c1oc(-c2cccs2)nc2sc3c(c12)CCCC3 | 20.6 µM [falling, partial curve, poor fit] | 
Cc1cc(C(=O)Nc2ccccc2C(=O)O)oc1C | 0.447 µM [falling, full curve] | 
COCCCNC(=O)c1ccc2nc3ccccc3c(=O)n2c1 | 6.51 µM [falling, full curve] | 1.64 µM [rising, partial curve, poor fit]
COc1ccc(S(=O)(=O)n2nc(-c3ccc(Cl)cc3)cc2N)cc1 | 14.1 µM [falling, single point] | 
CS(=O)(=O)c1ccc(C(=O)OCC(=O)NCc2cccs2)cc1[N+](=O)[O-] | 7.31 µM [falling, partial curve] | 13 µM [rising, partial curve, poor fit]
Cc1cc(SCC(=O)Nc2cccc(S(=O)(=O)N3CCOCC3)c2)nc2ccccc12 | 35.5 µM [falling, single point] | 
CCOc1ccc(OCC(=O)Nc2nccs2)cc1 | 10 µM [falling, partial curve] | 
Cc1nc(N)nc(N/N=C/c2ccccc2)n1 | 35.5 µM [falling, single point] | 
O=C(NN=C1CCCC1)c1ccc(Br)cc1 | 7.94 µM [falling, partial curve, poor fit] | 
Cc1nc(CCN2C(=O)c3ccccc3C2=O)n[nH]1 | 0.92 µM [falling, full curve, poor fit] | 
Cc1ccc(C(=O)Oc2oc(-c3ccco3)nc2C=Nc2ccccc2)cc1 | 14.1 µM [falling, partial curve] | 
COc1ccc(CC(=O)Nc2c3c(nn2C(C)(C)C)CS(=O)C3)cc1 (stereo unspecified) | 6.51 µM [falling, single point] | 
CCCCN(C)S(=O)(=O)c1cc2c3c(c1)CCC(=O)N3CCC2 | 3.55 µM [falling, partial curve, poor fit] | 
CCn1c(C(=O)N2CCC(C(=O)NCCCSC3CCCCC3)CC2)cc2sccc21 | 29.1 µM [falling, single point] | 
C(=N\N(Cc1ccccc1)c1ccccc1)/c1cccnc1 | 8.91 µM [falling, partial curve, poor fit] | 
